Among the data in paper PMC10516997 are binding values, retold here.

Amino acid sequences for entries named in this document (tags omitted).
UniProt Q9UKL0: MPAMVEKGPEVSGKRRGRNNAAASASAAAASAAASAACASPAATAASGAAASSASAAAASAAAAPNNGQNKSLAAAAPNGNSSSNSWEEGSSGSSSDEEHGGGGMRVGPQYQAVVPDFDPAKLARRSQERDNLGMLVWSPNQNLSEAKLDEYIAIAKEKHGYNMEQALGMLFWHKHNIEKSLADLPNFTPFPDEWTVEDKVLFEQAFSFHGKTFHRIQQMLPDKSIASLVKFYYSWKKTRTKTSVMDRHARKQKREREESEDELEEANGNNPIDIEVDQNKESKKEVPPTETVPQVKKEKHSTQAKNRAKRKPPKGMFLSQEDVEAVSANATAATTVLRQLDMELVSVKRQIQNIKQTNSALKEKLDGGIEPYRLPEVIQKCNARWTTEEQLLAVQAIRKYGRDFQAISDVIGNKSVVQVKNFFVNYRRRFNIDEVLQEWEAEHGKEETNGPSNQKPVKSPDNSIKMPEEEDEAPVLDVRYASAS

These are yes or no findings as the source states them, for the method shown. Binding seen in cells or lysates may run through a third protein. A yes stands for co-enrichment or nearness to the bait. Other partners may have been found.

The assay concerns the target Flag-RCOR1 (UniProt Q9UKL0). The assay is described as follows: affinity purification with mass spectrometry; H526 cells stably expressing Flag-tagged E2F7 or RCOR1 lysed in 1% NP40 buffer; supernatant incubated with M2 Flag resin overnight, washed with lysis buffer, eluted with 3XFlag peptide; background of Flag vector control subtracted.

B1: endogenous E2F7 (protein, UniProt Q96AV8 1-911)
chain: MEVNCLTLKDLISPRQPRLDFAVEDGENAQKENIFVDRSRMAPKTPIKNEPIDLSKQKKFTPERNPITPVKFVDRQQAEPWTPTANLKMLISAASPDIRDREKKKGLFRPIENKDDAFTDSLQLDVVGDSAVDEFEKQRPSRKQKSLGLLCQKFLARYPSYPLSTEKTTISLDEVAVSLGVERRRIYDIVNVLESLHLVSRVAKNQYGWHGRHSLPKTLRNLQRLGEEQKYEEQMAYLQQKELDLIDYKFGERKKDGDPDSQEQQLLDFSEPDCPSSSANSRKDKSLRIMSQKFVMLFLVSKTKIVTLDVAAKILIEESQDAPDHSKFKTKVRRLYDIANVLTSLALIKKVHVTEERGRKPAFKWIGPVDFSSSDEELVDVSASVLPELKRETYGQIQVCAKQKLARHGSFNTVQASERIQRKVNSEPSSPYREEQGSGGYSLEIGSLAAVYRQKIEDNSQGKAFASKRVVPPSSSLDPVAPFPVLSVDPEYCVNPLAHPVFSVAQTDLQAFSMQNGLNGQVDVSLASAASAVESLKPALLAGQPLVYVPSASLFMLYGSLQEGPASGSGSERDDRSSEAPATVELSSAPSAQKRLCEERKPQEEDEPATKRQSREYEDGPLSLVMPKKPSDSTDLASPKTMGNRASIPLKDIHVNGQLPAAEEISGKATANSLVSSEWGNPSRNTDVEKPSKENESTKEPSLLQYLCVQSPAGLNGFNVLLSGSQTPPTVGPSSGQLPSFSVPCMVLPSPPLGPFPVLYSPAMPGPVSSTLGALPNTGPVNFSLPGLGSIAQLLVGPTAVVNPKSSTLPSADPQLQSQPSLNLSPVMSRSHSVVQQPESPVYVGHPVSVVKLHQSPVPVTPKSIQRTHRETFFKTPGSLGDPVLKRRERNQSRNTSSAQRRLEIPSGGAD
As to B1, the binding result was “binds”.
